In PubChem BioAssay AID504834 (National Center for Advancing Translational Sciences (NCATS), 2011):
Out of some 320,000 compounds screened, about 22,000 (6.9%) were called active. This list was built around the results that the source calls inconclusive (neither active nor inactive); the mix of calls is not that of the screen. The call rests on the fitted dose curve; in most records, active means well fitted inhibition curve with a large enough effect; inconclusive means small, poorly fitted or top-dose-only effect, or another doubt; inactive means no such curve, though single readings can be large or run the other way. Where the call is inconclusive, the potency comes from a doubtful curve fit.
On the % scale 0 is the no-effect control and ±100 the full control effect; potency means the concentration at half of the fitted maximal effect.

Experiment: Primary qHTS for delayed death inhibitors of the malarial parasite plastid, 96 hour incubation
Conditions: P. falciparum luciferase reporter growth; series mostly up to 28.7 µM; activity change, negative = inhibition: at the top concentration
How it was run: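 P. falciparum expressing integrated firefly luciferase grown in erythrocytes (2% hematocrit, 0.05% parasitemia final) with compounds for 96 hours at 37 C, 5% CO2. Growth inhibition read as loss of luminescence after adding luciferase detection reagent.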
For `CCOc1ccc2nc(SCC(=O)N3CCCCCC3)c(C#N)cc2c1`, the “activity change, negative = inhibition” value was inactive: 46.5%.
With `O=C(Nc1cnccn1)c1ccc(F)cc1Cl` the Potency was inconclusive: 9.28 µM [inhibitor, partial curve, poor fit].
In the case of `COc1ccc(N2CCN(c3ncnc4c3cnn4-c3ccc(C)cc3C)CC2)cc1`, the “activity change, negative = inhibition” value is reported as inactive: 138%.
For `COc1ccccc1CNC(=O)CC1Sc2ccccc2NC1=O` (stereo unspecified), the Potency was inconclusive: 4.15 µM [inhibitor, partial curve, poor fit].
In the case of `Cn1nnnc1SCc1csc(C2C(C#N)=C(N)OC3=C2C(=O)CCC3)c1` (stereo unspecified), the Potency is reported as inconclusive: 2.08 µM [inhibitor, partial curve, poor fit].
For `C/C(CC(=O)Nc1ccc2c(c1)OCO2)=N\NC(=O)C(c1ccccc1)c1ccccc1`, the Potency was inconclusive: 18.5 µM [inhibitor, single point].
In the case of `O=C(N/N=C/c1cn(-c2cccs2)nc1-c1ccccc1)c1ccc(O)cc1`, the “activity change, negative = inhibition” value is reported as inactive: -22.4%.
For `Cc1ccc(NC(=O)c2c([N+](=O)[O-])c(C(C)(C)C)nn2C)c(C)c1`, the Potency was inconclusive: 18.5 µM [inhibitor, single point].
For `COc1ccc(C(=O)NCc2ccc3c(c2)OCO3)cc1S(=O)(=O)N1CCCC1`, the Potency was inconclusive: 8.28 µM [inhibitor, single point].
For `CCN(CC)CCOc1c(Br)ccc2c1sc1nc3n(c(=O)c12)CCC3`, the Potency was active: 13.1 µM.
In the case of `O=C(Nc1nc(-c2ccccn2)cs1)C12CC3CC(CC(O)(C3)C1)C2`, the Potency is reported as inconclusive: 18.5 µM [inhibitor, single point].
For `COc1cccc(-c2cc(C(=O)O)[nH]n2)c1`, the “activity change, negative = inhibition” value was inactive: 64.3%.
With `O=C(c1ccc(CS(=O)Cc2cccc(Cl)c2)o1)N1CCN(C2CCCCC2)CC1` (stereo unspecified) the “activity change, negative = inhibition” value was inactive: 14.4%.
In the case of `Cc1[nH]c2ccccc2c1C(=O)CN1CCN(c2ccc(Cl)cc2)CC1`, the Potency is reported as inconclusive: 11.7 µM [inhibitor, single point].
With `Cc1cccc(/C=N/NC(=O)NC2CCCCC2)c1` the Potency was inconclusive: 2.62 µM [inhibitor, partial curve, poor fit].
In the case of `NS(=O)(=O)c1ccccc1NC(=O)c1c(O)c2ccccc2[nH]c1=O`, the “activity change, negative = inhibition” value is reported as inactive: -8.08%.
With `COc1cc(CN2CCCC(C(=O)N3CCc4ccccc4C3)C2)cc(OC)c1OC` (stereo unspecified) the Potency was inconclusive: 0.294 µM [inhibitor, full curve, poor fit].
In the case of `Cc1ccc(NC(=O)CN(C)C2CCCCC2)cc1Cl`, the Potency is reported as inconclusive: 11.7 µM [inhibitor, single point].
With `O=C(Nc1cnn(Cc2ccc(F)cc2)c1)c1cnccn1` the Potency was inconclusive: 0.104 µM [inhibitor, full curve, poor fit].
In the case of `CCOc1ccc(CCNC(=O)c2ccccc2OCc2c(C)noc2C)cc1OCC`, the Potency is reported as inconclusive: 6.57 µM [inhibitor, partial curve].
In the case of `N#Cc1c(N2CCNCC2)nc(-c2ccco2)c2c1CCCC2`, the “activity change, negative = inhibition” value is reported as inactive: 32.5%.
In the case of `O=C(NN1C(=O)C2C3C=CC(O3)C2C1=O)c1cccc(O)c1` (stereo unspecified), the Potency is reported as inconclusive: 16.5 µM [inhibitor, single point].
With `CC1CCCN(S(=O)(=O)c2ccc(NC(=O)[C@@H]3CCCN3C(=O)c3cccs3)cc2)C1` (stereo partly specified) the Potency was inconclusive: 10.4 µM [inhibitor, single point].
In the case of `Cc1nc2ccccc2nc(C)c1=NOCc1cccc(F)c1`, the “activity change, negative = inhibition” value is reported as inactive: -15.4%.
With `CCc1ccc(-c2nnn(CCC(=O)OC)n2)cc1` the Potency was active: 4.65 µM.
With `O=C(Nc1cc(S(=O)(=O)N2CCOCC2)ccc1O)c1ccco1` the Potency was inconclusive: 18.5 µM [inhibitor, single point].
For `COC(=O)C1=C(C)N(c2cccc(OC)c2)C(=O)/C1=C\c1ccco1`, the Potency was inconclusive: 18.5 µM [inhibitor, single point].
In the case of `CCOc1ccc(OCC)c(NC(=O)CSc2nnc(C3CC3)n2CC)c1`, the Potency is reported as inconclusive: 11.7 µM [inhibitor, partial curve].
With `Cc1ccc(-c2nn(-c3cc(Cl)ccc3[N+](=O)[O-])c(=O)c3ccccc23)cc1` the Potency was active: 11.7 µM.
For `CC1=C(C(=O)OC(C)C)C(c2cn(-c3ccccc3)nc2-c2cccs2)NC(=O)N1` (stereo unspecified), the Potency was inconclusive: 18.5 µM [inhibitor, single point].
With `COc1ccccc1CNC(=O)c1cccc(S(=O)(=O)N2CCN(c3ccc(F)cc3)CC2)c1` the Potency was inconclusive: 18.5 µM [inhibitor, single point].
In the case of `CCOc1ccccc1Nc1nnc(SC(C)C(=O)Nc2nc(-c3ccccc3)cs2)s1` (stereo unspecified), the Potency is reported as inconclusive: 10.4 µM [inhibitor, single point].
For `CC1=CC(=O)C(C(C)C)=C/C1=C(\c1cc(C(C)C)c(OP(=O)(O)O)cc1C)c1ccccc1C(=O)O`, the Potency was inconclusive: 1.47 µM [inhibitor, partial curve, poor fit].
For `Cc1ccc[n+](CC(=O)Nc2ccc([N+](=O)[O-])cc2)c1`, the Potency was inconclusive: 10.4 µM [inhibitor, single point].
In the case of `CCOC(=O)c1cnc(-n2cc(C)cn2)nc1Nc1ccccc1OCC`, the Potency is reported as inconclusive: 11.7 µM [inhibitor, single point].
With `O=[N+]([O-])c1cccc(CN2CC=C(c3ccc(F)cc3)CC2)c1` the Potency was active: 10.4 µM.
With `CC(=O)N/C(=C\c1ccc(C)o1)C(=O)NCc1ccccc1` the Potency was inconclusive: 11.7 µM [inhibitor, single point].
In the case of `O=C1NC(c2ccccc2)=C(c2ccccc2)C1=O`, the Potency is reported as active: 10.4 µM.
For `Brc1cc2c(cc1CN1CCN(c3ccccc3)CC1)OCCO2`, the “activity change, negative = inhibition” value was inactive: 12.5%.
With `CNC(=O)c1ccc(NC(=O)/C=C/c2cccc(F)c2)cc1` the “activity change, negative = inhibition” value was inactive: 27.1%.
With `O=C(c1ccc(-n2cccn2)cc1)N1CCN(c2ncccc2C(F)(F)F)CC1` the “activity change, negative = inhibition” value was inactive: 20.3%.
For `O=C(Nc1ccccc1)C1CCCN(S(=O)(=O)c2ccc(-n3cnnn3)cc2)C1` (stereo unspecified), the “activity change, negative = inhibition” value was inactive: -3.96%.
With `CCOC(=O)c1c(C)[nH]c(O)c1C=Nc1ccccc1` the Potency was inconclusive: 4.15 µM [inhibitor, partial curve].
In the case of `CCOc1ccc(N(CC(=O)N2CCC(Cc3ccccc3)CC2)S(C)(=O)=O)cc1`, the “activity change, negative = inhibition” value is reported as inactive: -18.1%.
With `Cc1oc(-c2ccccc2F)nc1CN1CCC(C(=O)NC2CCCCCCC2)CC1` the “activity change, negative = inhibition” value was inactive: 34.4%.
For `CCCc1cc(=O)[nH]c(SCC(=O)Nc2sc(C(N)=O)c(C)c2C(=O)OCCOC)n1`, the Potency was inconclusive: 10.4 µM [inhibitor, partial curve, poor fit].
With `O=C(CN(CC1CCCO1)S(=O)(=O)c1ccc(S(=O)(=O)NCC2CCCO2)cc1)Nc1ccccc1` (stereo unspecified) the “activity change, negative = inhibition” value was inactive: -13.1%.
For `CN(C)CCCN(C(=O)c1ccc(S(=O)(=O)N2CCc3ccccc32)cc1)c1nc2ccc(F)cc2s1`, the Potency was inconclusive: 16.5 µM [inhibitor, partial curve].
For `O=C(CC(C(=O)O)c1c[nH]c2ccccc12)c1ccccc1` (stereo unspecified), the Potency was inconclusive: 13.1 µM [inhibitor, single point].
For `O=C1Nc2ccccc2C12OCCCO2`, the Potency was inconclusive: 18.5 µM [inhibitor, single point].
With `O=C(Nc1ccc(COc2ccccc2)cc1)Oc1ccccc1N1CCOCC1` the “activity change, negative = inhibition” value was inactive: 67.5%.
For `Cc1cc(C(=O)NN=C2CCCC2)c2ccccc2n1`, the “activity change, negative = inhibition” value was inactive: -0.646%.
In the case of `Cc1ccc(S(=O)(=O)Nc2cccc3ncccc23)cc1`, the Potency is reported as inconclusive: 10.4 µM [inhibitor, single point].
With `Cc1sc2ncnc(NCC3CCCO3)c2c1C` (stereo unspecified) the “activity change, negative = inhibition” value was inactive: 128%.
For `CCOc1ccc(NC(=O)c2sc3nc(N4CCOCC4)c4c(c3c2N)CC(C)(C)OC4)cc1`, the Potency was inconclusive: 1.85 µM [inhibitor, partial curve, poor fit].
For `O=C1NC(Cc2c[nH]c3ccccc23)C(=O)N1Cc1ccccc1` (stereo unspecified), the “activity change, negative = inhibition” value was inactive: 23.4%.
In the case of `COc1cc(C(=O)NCC(=O)N/N=C(C)\C=C\c2ccccc2)cc(OC)c1OC`, the Potency is reported as inconclusive: 14.7 µM [inhibitor, single point].
In the case of `Cc1ccc(COC(=O)c2cc(S(=O)(=O)N3CCCCC3)ccc2N2CCOCC2)cc1`, the Potency is reported as inconclusive: 3.7 µM [inhibitor, full curve, poor fit].
For `C=CCNC(=O)c1ccc(Cn2c(=S)[nH]c3cc4c(cc3c2=O)OCO4)cc1`, the “activity change, negative = inhibition” value was inactive: 143%.
With `CCOC(=O)C1(CC2CCCCO2)CCN(C(=O)Nc2ccc(C)c(C)c2)CC1` (stereo unspecified) the Potency was inconclusive: 11.7 µM [inhibitor, partial curve].
For `Cn1c(CNC(=O)C2CCCCC2)cc2ccccc21`, the “activity change, negative = inhibition” value was inactive: 7.35%.
For `CC(=O)N1c2ccc(S(=O)(=O)N3CCCC(C(=O)NCc4ccccc4)C3)cc2CC1C` (stereo unspecified), the Potency was inconclusive: 20.8 µM [inhibitor, partial curve, poor fit].
In the case of `S=C1NC[C@H](c2ccccc2)N1CCCCC1CCCCC1`, the Potency is reported as active: 6.57 µM.
In the case of `Cc1cc2nc(C3CCN(C(=S)NCCCOC(C)C)CC3)[nH]c2cc1C`, the “activity change, negative = inhibition” value is reported as inactive: 5.29%.
For `COC(=O)[C@H](Cc1c[nH]c2ccccc12)NC(=O)CCCc1c[nH]c2ccccc12`, the Potency was inconclusive: 1.47 µM [inhibitor, partial curve, poor fit].
In the case of `COc1ccccc1/C=N/NC(=O)c1[nH]c(C)c(C(=O)N/N=C/c2ccccc2OC)c1C`, the Potency is reported as inconclusive: 10.4 µM [inhibitor, partial curve, poor fit].
For `Brc1ccc(/C=N/Nc2ccccc2)cc1`, the “activity change, negative = inhibition” value was inactive: -69.4%.
With `O=S(=O)(NCC(c1cccnc1)N1CCN(Cc2ccccc2)CC1)c1ccc(F)cc1` (stereo unspecified) the Potency was inconclusive: 18.5 µM [inhibitor, single point].
In the case of `Cn1c(N)c(C(=O)CSc2nnc(-c3c[nH]c4ccccc34)n2C2CC2)c(=O)[nH]c1=O`, the Potency is reported as active: 6.57 µM.
In the case of `CCOc1ccc(CCNC(=O)C2CCN(c3nn4c(=O)cc(C)nc4s3)CC2)cc1`, the “activity change, negative = inhibition” value is reported as inactive: 58.8%.
With `O=C(COc1ccc(Br)cc1Cl)NC(=S)N1CCc2ccccc21` the Potency was inconclusive: 18.5 µM [inhibitor, single point].
